Experimental data taken from patent publication US20220195047A1 (TCRCURE BIOPHARMA, published 2022).
No constants are given. Whether binding was seen depends on the method and setting. Some entries that bind do so weakly or less than the wild type.

The chains behind the UniProt entries cited, without tags or fusion partners. Where a name states a change or a piece, a line headed by the entry shows the natural chain unless it says otherwise.
UniProt Q15116: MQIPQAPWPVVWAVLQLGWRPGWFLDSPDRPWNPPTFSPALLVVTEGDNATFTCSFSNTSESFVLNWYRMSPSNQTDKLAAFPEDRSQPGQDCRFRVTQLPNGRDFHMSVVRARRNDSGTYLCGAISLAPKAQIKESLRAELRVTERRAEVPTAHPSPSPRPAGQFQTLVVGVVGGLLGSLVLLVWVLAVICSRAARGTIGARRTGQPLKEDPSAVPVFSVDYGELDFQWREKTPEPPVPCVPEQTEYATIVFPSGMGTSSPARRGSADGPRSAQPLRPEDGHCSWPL

Tests used:
[1] = biological target: human PD-1 protein (hPD-1) on cell surface of 293T-PD-1 cells (human) (UniProt Q15116); assay: flow cytometry on 293T-PD-1 cells
[2] = biological target: human PD-1 protein (hPD-1) on cell surface of 293T-PD-1 cells (human) (UniProt Q15116); assay: flow cytometry on cells stably expressing PD-1 (1:50)
[3] = biological target: human PD-1 protein (hPD-1) on cell surface of 293T-PD-1 cells (human) (UniProt Q15116); assay: Western blot of lysates of HEK-293T cells transfected with PDCD1 cDNA
[4] = biological target: human PD-1 protein (hPD-1) on cell surface of 293T-PD-1 cells (human) (UniProt Q15116); assay: Western blot of HEK293T lysates, 5 ug per lane, SDS-PAGE, antibody 1:2000
[5] = biological target: human PD-1 protein (hPD-1) on cell surface of 293T-PD-1 cells (human) (UniProt Q15116); assay: immunocytochemistry staining of cells stably expressing PD-1; 293T cells as negative control (1:900)
[6] = biological target: human PD-1 protein (hPD-1) on cell surface of 293T-PD-1 cells (human) (UniProt Q15116); assay: flow cytometry on 293T-PD-1 cells, 4 C for 60 min, secondary FITC-anti-Mouse IgG F(ab')2; y axis hPD-1%
[7] = biological target: human PD-1 protein (hPD-1) on cell surface of 293T-PD-1 cells (human) (UniProt Q15116); assay: immunofluorescent staining of PDCD1-stable-transfected HEK293T cells, nuclei labelled with Hoechst33342; 293T cells as negative control (1:100)
[8] = biological target: T1, recombinant biotinylated human PD-1 (human, UniProt Q15116 25-170, limits assumed, biotinylated (site not stated)); assay: ELISA: antibody coated at 5 ug/ml, 5-fold serial dilution of biotinylated rhPD-1 added, detection Sav-HRP; the concentration axis is that of rhPD-1
T1 construct: also called rhPD-1; recombinant human PD-1 protein

Measured: binding

B1: F02 anti-PD-1 antibody (antibody, V domains shown)
VH: QQPGAELVKPGASVKLSCRASGYTFTNYYLYWVKQRPGQGLEWIGGINPSNGGTNFNEKFRGKATLTVDKSSSTAYMQLSSLTSEDSAVYFCTRRDYNYDGGFDYWGQGSTLTVSS
VL: DIVLTQSPASLAVSLGQRATISCRASKSVSTSGFNYMHWYQQKPGQPPKLLIYLASNLDSGVPARFSGSGSGTDFTLNIHPVEEEDAATYYCQHGRELPLTFGAGTKLELRR
notes: Mouse monoclonal antibody from hybridoma clone #11, detected with anti-mouse IgG F(ab')2; Only the variable domains are tied to F02; also called anti-PD-1 antibody from hybridoma clone #11; clone #11
binds: all assays above
